Among the data in patent US4426371A, “Novel N-hydroxyalkylated dicarboxylic acid bis(3,5-dicarbamoyl-2,4,6-triiodoanilides), as X-ray contrast media” (Schering, Aktiengesellschaft, priority 1980, dated 1984) are flavor values, retold here.

This data set is described as follows: Flavor. The settings on record: suitability for oral administration and introduction into the lungs.

`O=C(NCC(O)CO)c1c(I)c(C(=O)NCC(O)CO)c(I)c(N(CCO)C(=O)C(=O)N(CCO)c2c(I)c(C(=O)NCC(O)CO)c(I)c(C(=O)NCC(O)CO)c2I)c1I` (centres unmarked) [Example 2, Oxalic Acid Bis[3,5-bis(2,3-dihydroxypropylcarbamoyl)-2,4,6-triiodo-N-(2-hydroxyethyl)anilide]]: the flavor entry is “slight and neutral flavor”.
With `O=C(NC(CO)CO)c1c(I)c(C(=O)NC(CO)CO)c(I)c(N(CCO)C(=O)CC(=O)N(CCO)c2c(I)c(C(=O)NC(CO)CO)c(I)c(C(=O)NC(CO)CO)c2I)c1I` [A, malonic acid bis[3,5-bis(1,3-dihydroxyisopropylcarbamoyl)-2,4,6-triiodo-N-2-hydroxyethylanilide]] the entry was “slight and neutral flavor”.
